This experiment has as its target K-Ras 12D (Homo sapiens, UniProt P01116, G12D). In words: p-ERK Cellular Assay (Biological Example 1). It counts as cell-based. The conditions noted are these: read-out: AGS PERK EC50; PANC-1 or A-427 cells (KRAS G12D), 3 hours treatment, Cisbio HTRF p-ERK1/2; Biological Example 1 (value marked #); tested form: mixture of the two enantiomers (3aR,7aR). As to the method: The ability of the compound of Formula (IIA1′), (IIA′), (II′), or (II) or a pharmaceutically acceptable salt thereof (test compound) to inhibit K-Ras 12D activity was tested using PANC-1 (ATCC, CRL-1469) and A-427 (ATCC, HTB-53) cell lines which harbor KRAS G12D mutation as described below.
PANC-1 (ATCC, CRL-1469) or A-427 (ATCC, HTB-53) were seeded in 96-well plates and cultured overnight (20,000 cells per well, 200 μl total volume). The following morning, cells were treated with test compound, with starting concentration at 10 μM and 2 log dilution down to 1 nM for 3 hours at 37° C. DMSO treatment served as control. p-ERK was then measured using Advanced Phospho-ERK 1/2 (Thr202/Tyr204) Assay Kit (Cisbio, Cat #64AERPET) following the manufacturer's instruction.
Briefly, medium was removed and 40 μl 1× lysis buffer was added to each well followed by 30 min. incubation on a plate shaker at room temperature. Then 8 μl of lysate was transferred to a white low volume 384-well plate. […] Signal was then measured on a CLARIOstar® plate reader. […]
(In general: In TR-FRET formats the signal depends on donor and acceptor labels being close together.)

The chains behind the UniProt entries cited, without tags or fusion partners. Residues count along the entry.
UniProt P01116, 1-188 isoform 2 G12D: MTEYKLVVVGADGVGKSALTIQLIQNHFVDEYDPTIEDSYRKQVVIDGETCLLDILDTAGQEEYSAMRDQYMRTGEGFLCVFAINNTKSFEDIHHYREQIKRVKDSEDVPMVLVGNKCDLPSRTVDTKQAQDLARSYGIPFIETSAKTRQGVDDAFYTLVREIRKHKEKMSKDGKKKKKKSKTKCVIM

Structures were worked out from names or drawings and are uncertain.

Turning to `C#Cc1cccc2cc(O)cc(-c3ncc4c(N5CC6CCC(C5)N6)nc(OCC56CCCN5C5COCC5C6)nc4c3F)c12` (stereo not shown), the EC50 is 5 nM.

The term EC50 denotes the concentration that produces a half-maximal response.
